From US20220249528A1 (CELGENE CORPORATION, priority 2019, published 2022)
For at least one compound, name, drawing or mass did not settle the structure.

Assays:
MV4-11 cells = experiment: Combination cell viability, synergy (highest single agent model, Combenefit)
MOLM-13 cells = experiment: as above; conditions: FIG. 16E

SMILES | sensitization to and synergistic activity with 5-azacytidine (MV4-11 cells; 5-azacytidine Day 1-3, FLT-3 inhibitor Day 4, viability Day 7, FIGS. 17A-D) | synergy with 5-azacytidine in vitro (MV4-11 cells; FIG. 16B) | synergy with 5-azacytidine in vitro (MOLM-13 cells)
CO[C@@H]1[C@H](N(C)C(=O)c2ccccc2)C[C@H]2O[C@]1(C)n1c3ccccc3c3c4c(c5c6ccccc6n2c5c31)C(=O)NC4 [Midostaurin] | synergistic activity | – | –
CC1(C)CCC(CN2CCN(c3ccc(C(=O)NS(=O)(=O)c4ccc(NCC5CCOCC5)c([N+](=O)[O-])c4)c(Oc4cnc5[nH]ccc5c4)c3)CC2)=C(c2ccc(Cl)cc2)C1 [Venetoclax] | – | synergized with 5-azacytidine | synergized with 5-azacytidine
